# In the supplement of paper PMC8426693:
# The list shows a part of the results.
# Experiments:
# Assay in all cases: NMR binding call after quantification (hit when 2 of 3 NMR criteria are met) (binary (1 = binding, 0 = not binding)); higher = binding
# Conditions in all cases: RNA concentration 10 µM; fragment concentration 200 µM; 293 K
# [1] = system: SARS-CoV-2 3'-UTR RNA
# [2] = system: SARS-CoV-2 3_SL1 RNA
# [3] = system: SARS-CoV-2 3_SL1+2 RNA
# [4] = system: SARS-CoV-2 3_SL2 RNA
# [5] = system: SARS-CoV-2 3_SL3base RNA
# [6] = system: SARS-CoV-2 3_s2m RNA
# [7] = system: SARS-CoV-2 5'-UTR RNA
# [8] = system: SARS-CoV-2 5_SL1 RNA
# [9] = system: SARS-CoV-2 5_SL1234 RNA
# [10] = system: SARS-CoV-2 5_SL2+3 RNA
# [11] = system: SARS-CoV-2 5_SL4 RNA
# [12] = system: SARS-CoV-2 5_SL5 RNA
# [13] = system: SARS-CoV-2 5_SL5a RNA
# [14] = system: SARS-CoV-2 5_SL5b+c RNA
# [15] = system: SARS-CoV-2 5_SL5stem RNA
# [16] = system: SARS-CoV-2 5_SL6 RNA
Compound,NMR binding call [1],NMR binding call [2],NMR binding call [3],NMR binding call [4],NMR binding call [5],NMR binding call [6],NMR binding call [7],NMR binding call [8],NMR binding call [9],NMR binding call [10],NMR binding call [11],NMR binding call [12],NMR binding call [13],NMR binding call [14],NMR binding call [15],NMR binding call [16]
CNC(=O)c1ccc(S(N)(=O)=O)cc1,0,0,0,0,0,0,0,0,0,0,0,0,0,0,0,0
O=c1[nH]cc(N2CCOCC2)c(=O)[nH]1,0,0,0,0,0,0,0,0,0,0,0,0,0,0,0,0
CNC(=O)CNc1ncnc2sccc12,0,0,0,0,0,0,0,0,0,0,0,0,0,0,0,0
Cc1cc(C2CCCN2S(C)(=O)=O)no1 (centres undefined),0,0,0,0,0,0,0,0,0,0,0,0,0,0,0,0
Fc1ccccc1CNc1cn[nH]c1,0,0,0,0,0,0,0,0,0,0,0,0,0,0,0,0
CC(C)(O)CNC1CCOCC1,0,0,0,0,0,0,0,0,0,0,0,0,0,0,0,0
NC(=O)C1CCN(C(=O)C2CCCCC2)CC1,0,0,0,0,0,0,0,0,0,0,0,0,0,0,0,0
CC(=O)Nc1nnc(SC(C)C)s1,0,0,0,0,0,0,0,0,0,0,0,0,0,0,0,0
CC(C)NC(=O)c1cc[nH]n1,0,0,0,0,0,0,0,0,0,0,0,0,0,0,0,0
CC1=NN(c2ccccc2)C(=O)C1,0,0,0,0,0,0,0,0,0,0,0,0,0,0,0,0
CNC(=O)c1ccc(CS(C)(=O)=O)cc1,0,0,0,0,0,0,0,0,0,0,0,0,0,0,0,0
COCC(=O)Nc1cccc(NC(C)=O)c1,0,0,0,0,0,0,0,0,0,0,0,0,0,0,0,0
COc1ccc(CC(=O)Nc2nncs2)cc1,0,0,0,0,0,0,0,0,0,0,0,0,0,0,0,0
CNC1CCCN(c2ccccc2)C1=O (centres undefined),0,0,0,0,0,0,0,0,0,0,0,0,0,0,0,0
CC(=O)Nc1cnccc1C,0,0,0,0,0,0,0,0,0,0,0,0,0,0,0,0
Cc1ncc(CN2CCNCC2)s1,0,0,0,0,0,0,0,0,0,0,0,0,0,0,0,0
CCC(=O)Nc1ccc2[nH]c(=O)[nH]c2c1,0,0,0,0,0,0,0,0,0,0,0,0,0,0,0,0
CC(C)c1ncc(Cl)c(C(N)=O)n1,0,0,0,0,0,0,0,0,0,0,0,0,0,0,0,0
CC(C)NC(=O)c1ccc2ccccc2n1,1,0,0,0,0,0,0,0,0,0,0,0,0,0,0,0
CC1CCN(C(=O)CC(F)(F)F)CC1,0,0,0,0,0,0,0,0,0,0,0,0,0,0,0,0
CC(NC1CC1)c1cccnc1 (centres undefined),0,0,0,0,0,0,0,0,0,0,0,0,0,0,0,0
CC(=O)NC1CCC(N)CC1 (centres undefined),0,0,0,0,0,0,0,0,0,0,0,0,0,0,0,0
O=C(NCc1ccco1)NC1CCCCC1,0,0,0,0,0,0,0,0,0,0,0,0,0,0,0,0
CC(=O)N1CCCNCC1,0,0,0,0,0,0,0,0,0,0,0,0,0,0,0,0

# Part of the list above, reformatted.
Compound	NMR binding call [1]	NMR binding call [2]	NMR binding call [3]	NMR binding call [4]	NMR binding call [5]	NMR binding call [6]	NMR binding call [7]	NMR binding call [8]	NMR binding call [9]	NMR binding call [10]	NMR binding call [11]	NMR binding call [12]	NMR binding call [13]	NMR binding call [14]	NMR binding call [15]	NMR binding call [16]
CNC(=O)c1ccc(S(N)(=O)=O)cc1	0	0	0	0	0	0	0	0	0	0	0	0	0	0	0	0
O=c1[nH]cc(N2CCOCC2)c(=O)[nH]1	0	0	0	0	0	0	0	0	0	0	0	0	0	0	0	0
